This test has as its target GST-tagged Nesprin-2 (aa 6123–6421) triple mutant V6246A/L6253A/F6261A (mouse) (UniProt Q6ZWQ0). The test is described as follows: pull-down; GST-tagged Nesprin-1/2 fragment held on glutathione column (not eluted), incubated 30 min with Ni-NTA-purified His6-BicD2-CTD diluted to 125 mM NaCl; washed twice; eluted with 10 mM glutathione, 50 mM Tris pH 8.0, 150 mM NaCl, 1 mM DTT; SDS-PAGE, Coomassie; band ratio normalised to WT = …; both purified.

Chains of the proteins cited; added tags and fusions are not shown. Lines headed by an entry give the natural chain unless they say otherwise; changes in a name come on top. A line that says so, or that is headed by a name, gives the form on record, which may keep a tag or linker.
GST-tagged Nesprin-2 (aa 6123–6421) triple mutant V6246A/L6253A/F6261A (Q6ZWQ0, form named): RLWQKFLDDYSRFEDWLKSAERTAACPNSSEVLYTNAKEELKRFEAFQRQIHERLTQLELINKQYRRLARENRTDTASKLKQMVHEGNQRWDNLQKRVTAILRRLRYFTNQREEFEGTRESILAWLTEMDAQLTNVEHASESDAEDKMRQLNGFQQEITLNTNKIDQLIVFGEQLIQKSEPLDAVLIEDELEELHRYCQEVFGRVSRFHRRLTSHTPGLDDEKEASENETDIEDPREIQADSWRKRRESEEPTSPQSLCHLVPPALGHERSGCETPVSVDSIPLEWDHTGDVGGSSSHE

These are yes or no findings as the source states them, for the method shown. Tags and fused reporters may be left off the sequences shown.

B1: His6-tagged human BicD2-CTD (aa 715–804) (domain or fragment, UniProt Q8TD16-2 715-804, looked up)
chain: YENEKAMVTETMMKLRNELKALKEDAATFSSLRAMFATRCDEYITQLDEMQRQLAAAEDEKKTLNSLLRMAIQQKLALTQRLELLELDHE
notes: pET28a vector; source: E. coli LOBSTR BL21(DE3)-RIL, purified (Ni-NTA); not shown: His6, N-terminal, kept
As to B1, the binding result is “no binding”.

These data come from publication PMC13001094, “Cargo Recognition of Nesprin‑2 by the Dynein Adapter Bicaudal D2 for a Nuclear Positioning Pathway That Is Important for Brain Development” (Biochemistry, 2026).
